Results published in US6673355B1 (priority 1995, dated 2004).
Some results were stated once for a whole list of compounds, not compound by compound.

Tested on: CD1 mice ileal mucosa
Assay type: cell-based, mouse

Row | Compound | duration of transient increase in Isc
1 | C[N+](C)(C)CCOC(N)=O [Carbachol (Cch), carbachol] | 1 to 2 min
2 | DKLTTREIEQVELLKRIYDKLT [NSP4 114-135] | 1 to 2 min
